Reference: publication PMC5779226
No constants are given. Whether binding was seen depends on the method and setting. Binding seen in cells or lysates may run through a third protein. A yes stands for co-enrichment or nearness to the bait. Other partners may have been found. A no says only that the protein was not detected with the bait.

Protein sequences, listed by entry. Tags and fused reporters are not part of them.
UniProt P21187: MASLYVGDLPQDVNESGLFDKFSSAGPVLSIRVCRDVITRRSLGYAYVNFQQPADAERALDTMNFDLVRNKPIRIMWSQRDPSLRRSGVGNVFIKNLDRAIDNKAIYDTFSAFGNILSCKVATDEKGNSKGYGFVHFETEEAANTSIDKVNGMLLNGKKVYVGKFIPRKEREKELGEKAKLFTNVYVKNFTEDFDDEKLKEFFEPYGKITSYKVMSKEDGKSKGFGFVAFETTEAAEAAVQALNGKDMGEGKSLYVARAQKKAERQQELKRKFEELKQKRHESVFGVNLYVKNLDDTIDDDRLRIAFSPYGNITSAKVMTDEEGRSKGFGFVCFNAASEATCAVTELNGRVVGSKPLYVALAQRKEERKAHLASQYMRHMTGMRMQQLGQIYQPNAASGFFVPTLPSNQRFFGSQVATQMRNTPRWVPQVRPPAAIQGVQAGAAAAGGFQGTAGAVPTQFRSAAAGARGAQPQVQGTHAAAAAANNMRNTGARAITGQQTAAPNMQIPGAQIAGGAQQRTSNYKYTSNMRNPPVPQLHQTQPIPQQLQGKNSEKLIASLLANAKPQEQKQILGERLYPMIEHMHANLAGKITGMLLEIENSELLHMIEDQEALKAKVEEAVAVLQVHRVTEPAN
UniProt O02374: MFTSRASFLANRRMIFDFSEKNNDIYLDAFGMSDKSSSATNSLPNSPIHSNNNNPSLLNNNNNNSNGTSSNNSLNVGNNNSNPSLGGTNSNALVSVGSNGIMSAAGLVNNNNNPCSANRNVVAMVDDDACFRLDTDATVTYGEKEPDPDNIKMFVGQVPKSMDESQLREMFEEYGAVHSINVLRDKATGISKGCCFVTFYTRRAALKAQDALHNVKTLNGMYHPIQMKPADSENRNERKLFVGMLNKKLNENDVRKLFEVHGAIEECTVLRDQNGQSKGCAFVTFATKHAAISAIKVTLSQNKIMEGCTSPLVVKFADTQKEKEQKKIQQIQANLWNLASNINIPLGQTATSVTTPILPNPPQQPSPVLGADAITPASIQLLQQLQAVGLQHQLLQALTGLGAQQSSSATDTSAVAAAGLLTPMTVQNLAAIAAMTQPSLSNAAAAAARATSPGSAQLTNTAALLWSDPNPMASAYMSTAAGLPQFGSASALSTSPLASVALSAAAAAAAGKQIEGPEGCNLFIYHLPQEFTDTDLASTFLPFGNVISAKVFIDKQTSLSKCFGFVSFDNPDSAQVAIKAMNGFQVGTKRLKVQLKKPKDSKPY

Experiments:
[1] = target: PABP (D. melanogaster (endogenous in S2 cells and embryos)) (UniProt P21187); experiment: affinity purification with mass spectrometry; 0-1 hr embryo extracts immunoprecipitated with FLAG-tagged anti-PABP or anti-eIF4G Fabs (control Fab C1) on anti-FLAG beads, 4°C; LC/MS/MS of the immunoprecipitates
[2] = target: eIF4G (D. melanogaster (endogenous in S2 cells and embryos)); experiment: affinity purification with mass spectrometry; S2 cell extracts immunoprecipitated with FLAG-tagged anti-PABP or anti-eIF4G Fabs (control Fab C1) on anti-FLAG beads, 4°C; LC/MS/MS of the immunoprecipitates

Row | binding [1] | binding [2] | Molecule
1 | no binding |  | BRU1 (from UniProt O02374 1-604)
2 |  | no binding | ME31B (protein, UniProt P23128 1-459) MMTEKLNSGHTNLTSKGIINDLQIAGNTSDDMGWKSKLKLPPKDNRFKTTDVTDTRGNEFEEFCLKRELLMGIFEKGWERPSPIQEAAIPIALSGKDVLARAKNGTGKTGAYCIPVLEQIDPTKDYIQALVMVPTRELALQTSQICIELAKHLDIRVMVTTGGTILKDDILRIYQKVQLIIATPGRILDLMDKKVADMSHCRILVLDEADKLLSLDFQGMLDHVILKLPKDPQILLFSATFPLTVKNFMEKHLREPYEINLMEELTLKGVTQYYAFVQERQKVHCLNTLFSKLQINQSIIFCNSTQRVELLAKKITELGYCCYYIHAKMAQAHRNRVFHDFRQGLCRNLVCSDLFTRGIDVQAVNVVINFDFPRMAETYLHRIGRSGRFGHLGIAINLITYEDRFDLHRIEKELGTEIKPIPKVIDPALYVANVGASVGDTCNNSDLNNSANEEGNVSK
3 | binds |  | Cup (protein, UniProt Q9VMA3 1-1117) MQMAEAEQENGAGALKIATNAGATDRPAHQQLPLPVEDQQDEVLTPAEKGKFEYPPPPPPPTPVQAPLATKATALNASQEHDDDEANSEKWEDPCAPPPPPPLPTSAFLATGLGYLKLPAFKLKDALEKAITKLEANKRTLKASPESSRSIKNKNVVALEMLPRRSNPETIGDGSMLASTSTAVMLQTKKPAVIVEMERRCKIINLLAKQNQILESISGEAIPMHGPSKHLHEDEGLTLQVLSARASTPYTQPSSMLSCTAVSCDLEHDSPRKQVASKEAVPEQQSSQVQQKRPPSTGIHKPGSLRAPKAVRPTTAPVVSSKPVKSYTRSRLMDIRNGMFNALMHRSKESFVMPRIATCDDIELEGRLRRMNIWRTSDGTRFRTRSTTANLNMNNNNNNECMPAFFKNKNKPNLISDESIIQSQPPQPQTEFQDPAIVNQRRIGSGRLNHSKWGYNDEDYHSYHNGKSQHMEEVNSKNSKNMTVLQFFDNGEISSQPQRRPNTPVMGMSINRSENDTLHSNESSEDLSRANENYVKRVMSGFLVVSKPKSRDVEDRHHRRYRNQNEEPEWFSCGPTSRLDTIELCGFDEDEEKMLKEGNKNHGLGETERETSKQKMDHKYKWTHAEPMGRSKYMPKHDTNNNHNVENMNNVMATEHQQQKEEKRPGSGRSFQFDKFNQSQQNYESSSYVNHQQPPQTQPQQMQQQSNTNTNNSKFMSFFANEGNSSSSSLNEFFKQAINQGHGNNPEQPKSLGHIGQMPSVDQLEAKWRRNSLNNVGETANKQTDNFQKLIGSLSSAKPQSQAVGYDAISNFIMQQQQYQQQQQKQHLIIQQQQQHTAFLASLQLKAILGRADTQLLLLRLTKGEISKHGLLVQLANPRLTDMDREAITAVLQFTNTQQQQQQHKQQLDMLSSTVIASQLQNLHNLAIVQQTLAARQQPQHNPQTQAPHQLSQEDLQAHANVIMRNAVMKRKIEEQTSKLINGGAKHQAQQQYLNRGQQRQARPDANSNALLHALISGGGNNHASGYPMNGQPQKHHSNLRFGDNQNFQSFESNQPHFATQYKQQYQQSQQQHPHQQPQQLNSLHQNNAGAVNSFNKAQMQAQSAISMLPNSGDEFH
